This is an account of results in patent US9745283B2, “Uracil derivatives as AXL and c-MET kinase inhibitors” (priority 2011, dated 2017).

In the experiment the target is recombinant human baculovirus-expressed cMET (Homo sapiens (Human), UniProt P08581). Kind of experiment: C-MET Kinase Assay (HTRF KinEASE). Format: biochemical. To be noted: average of two or more determinations. On the procedure:
The cMET kinase assay was performed in 384-well Fluotrac™ 200 HiBase microplates using the HTRF KinEASE™ assay described above for AXL except that the assay volume was reduced to half. Enzyme concentration was 8 ng/mL of recombinant human baculovirus-expressed cMET while the substrate concentrations were 0.1 μM and 0.02 μM for the biotinylated peptide and ATP, respectively. Instead of the Multidrop Combi, the BioRAPTR® FRD microfluidic workstation (Beckman Coulter, Brea, Calif.) was utilized for reagent additions.
Inhibition curves for compounds were generated by plotting percent control activity versus log 10 of the concentration of compound. IC50 values were calculated by nonlinear regression using the sigmoidal dose-response (variable slope) equation in GraphPad Prism as follows: y=bottom+(top−bottom)/(1+10(log IC50−x)*Hill Slope) where y is the % kinase activity at a given concentration of compound, x is the logarithm of the concentration of compound, bottom is the % of control kinase activity at the highest compound concentration tested, and top is the % of control kinase activity at the lowest compound concentration examined. The values for bottom and top were fixed at 0 and 100, respectively.

The structures appear in SMILES notation.

With `CCn1nc(C(=O)Nc2ccc(Oc3ccnc4cc(OC)c(OC)cc34)c(C(C)C)c2)c(=O)n(-c2ccc(F)cc2)c1=O` [Example 165, 2-Ethyl-4-(4-fluoro-phenyl)-3,5-dioxo-2,3,4,5-tetrahydro-1,2,4-triazine-6-carboxylic acid [4-(6,7-dimethoxy-quinolin-4-yloxy)-3-isopropyl-phenyl]-amide], the IC50 is 10 to 100 nM.

Broadly, the IC50 is the concentration at which inhibition is half-maximal.
